Laboratory results reported in patent US20080090770A1, “Modulation of Muc1 Mediated Signal Transduction” (priority 2003, published 2008).
No constants are given. Whether binding was seen depends on the method and setting. Some binding calls cover weakened binding; strength is not graded here.

Protein sequences, listed by entry. Tags and fused reporters are not part of them. Residues count along the entry.
UniProt P26045, residues 510-582: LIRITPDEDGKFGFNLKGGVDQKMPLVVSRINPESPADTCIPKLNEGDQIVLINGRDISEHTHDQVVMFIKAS
UniProt P15941, residues 1184-1255: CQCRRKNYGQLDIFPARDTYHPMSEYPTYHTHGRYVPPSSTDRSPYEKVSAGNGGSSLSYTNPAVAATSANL

Assays:
[1] = target: T1, Mint-1 d2 (XII protein, PDZ domain #2) (human) (UniProt Q02410); test: PDZ array membrane, 80 ng/spot, no 7-mer peptide
T1 sequence (looked up): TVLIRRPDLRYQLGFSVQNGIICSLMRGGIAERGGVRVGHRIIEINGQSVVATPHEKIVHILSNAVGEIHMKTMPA

[2] = target: T2, HtrA2 (high temperature requirement protein A2) (human) (UniProt O43464); test: PDZ array membrane, 80 ng/spot, no 7-mer peptide
T2 sequence (looked up): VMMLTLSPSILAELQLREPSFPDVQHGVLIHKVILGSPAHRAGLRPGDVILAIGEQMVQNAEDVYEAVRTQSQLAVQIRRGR

[3] = target: T3, Mint-3 d1 (human) (UniProt O96018); test: PDZ array membrane, 80 ng/spot, no 7-mer peptide
T3 sequence (looked up): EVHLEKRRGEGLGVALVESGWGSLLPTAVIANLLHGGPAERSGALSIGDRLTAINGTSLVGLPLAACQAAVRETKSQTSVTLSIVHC

[4] = target: T4, RIL (reversion-induced LIM protein) (human) (UniProt P50479); test: TransSignal PDZ Domain Array membrane, bacterial extract, anti-His HRP
T4 sequence (looked up): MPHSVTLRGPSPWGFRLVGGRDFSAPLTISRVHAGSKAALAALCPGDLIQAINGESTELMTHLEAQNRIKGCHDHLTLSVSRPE

[5] = target: T1, Mint-1 d2 (XII protein, PDZ domain #2) (human); test: as above
[6] = target: T2, HtrA2 (high temperature requirement protein A2) (human); test: as above
[7] = target: PTPH1 (protein-tyrosine phosphatase H1) (human) (UniProt P26045); test: as above
[8] = target: T5, OMP25 (mitochondrial outer membrane protein 25) (human) (UniProt P57105); test: as above
T5 sequence (looked up): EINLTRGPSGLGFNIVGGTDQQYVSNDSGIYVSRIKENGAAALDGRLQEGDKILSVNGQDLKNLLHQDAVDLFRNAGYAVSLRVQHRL

[9] = target: T1, Mint-1 d2 (XII protein, PDZ domain #2) (human); test: PDZ array membrane, 400 ng/spot, no 7-mer peptide
[10] = target: T2, HtrA2 (high temperature requirement protein A2) (human); test: PDZ array membrane, 400 ng/spot, no 7-mer peptide
[11] = target: PTPH1 (protein-tyrosine phosphatase H1) (human) (UniProt P26045); test: PDZ array membrane, 400 ng/spot, no 7-mer peptide
[12] = target: T3, Mint-3 d1 (human); test: PDZ array membrane, 400 ng/spot, no 7-mer peptide

Measured: binding

His-tagged MUC1/CD (from UniProt P15941 1184-1255)
binds: [1] | [2] | [3] | [4] | [5] | [6] | [7] | [8] | [9] | [10] | [11] | [12]
